The campaign covered roughly 350,000 compounds. About 220 (0.063%) were called active. Inconclusive results, whose numbers are uncertain, are shown with a selection of clear calls. The call rests on the fitted dose curve; in most records, active means well fitted activation curve with a large enough effect; inconclusive means small, poorly fitted or top-dose-only effect; inactive means no such curve, though single readings can be large or run the other way. Potencies beside an inconclusive call are fits to weak or partial responses and may not hold up.
Experiment: qHTS for Activators of Integrin-Mediated Alleviation for Muscular Dystrophy; further: nearly all actives have a fitted effect of over 60% in size;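 on activation: 100% = response of the positive control SU9516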
Settings: alpha7betagal myoblasts, beta-gal FDG fluorescence, 48 h; activation: at 38.3 µM (top of the series)
Method in brief: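 alpha7betagal+/- myoblasts (passage 13, 250/well) treated 48 h at 37C with compounds at 1:260 dilution of DMSO stock. Lysed, then beta-galactosidase activity read as FDG fluorescence (ex 480/em 540) after 30 min, with pre-read for autofluorescence.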
Potency means the concentration at half of the fitted maximal effect.

Potency, inconclusive:
Cc1ccc(C(=O)CSc2nnc(C3CC3)n2C2CC2)s1 2.51 µM [activator, partial curve, poor fit]
COc1ccc(NC(=S)N2CCN(C(c3ccccc3)c3ccccc3)CC2)cc1OC 2.82 µM [activator, single point]
CCn1c(=O)c(C(=O)NC(C)c2ccccc2)c(O)c2ccccc21 (centres undefined) 2.24 µM [activator, single point]
Cc1ccc(NCc2n[nH]c(=S)n2Cc2ccccc2)cc1Cl 14.1 µM [activator, single point]
Cc1nc2scc(C)n2c(=O)c1S(=O)(=O)NCC1CCN(Cc2ccc(F)cc2)CC1 5.01 µM [activator, single point]
CC(c1ccccc1)n1c(SCC(=O)Nc2ccccc2)n[nH]c1=O (centres undefined) 2.82 µM [activator, partial curve, poor fit]
COc1ccc(-c2cn[nH]c2-c2ccc(O)cc2O)cc1 7.94 µM [activator, partial curve, poor fit]
COc1ccc(N=C2C(=O)Nc3ccccc32)cc1 0.355 µM [activator, full curve, poor fit]
CC(C)c1nnc(NC(=O)CCC(=O)NCc2ccco2)s1 12.6 µM [activator, single point]
Cc1nc(=O)c(-c2ccccc2)c(C)n1-c1cccc(/C=C/C(=O)O)c1 5.62 µM [activator, partial curve, poor fit]
COc1ccc(C(=O)COC(=O)CCN2C(=O)[C@@H]3[C@H](C2=O)[C@@H]2C[C@H]3C(Br)C2Br)cc1 (some centres undefined) 3.16 µM [activator, single point]

Random excerpt: 2 compounds from above.
Potency, inconclusive:
COc1ccc(-c2cn[nH]c2-c2ccc(O)cc2O)cc1 7.94 µM [activator, partial curve, poor fit]
COc1ccc(NC(=S)N2CCN(C(c3ccccc3)c3ccccc3)CC2)cc1OC 2.82 µM [activator, single point]

Following part.

Potency, inactive:
CCOc1ccc(/C=C/C(=O)Nc2ccc(OC)cc2[N+](=O)[O-])cc1
O=C(Nc1ccccc1Cc1ccccc1)c1ccccc1NS(=O)(=O)c1ccc(Cl)s1
COc1cc(NC(=O)N2CCNC2=O)cc(C(=O)Nc2cccc(C(F)(F)F)c2)c1
C/C(CC(=O)Nc1ccc(N(C)C)cc1)=N\NC(=O)c1ccc(F)cc1
CCc1ccc(CSc2nccn2-c2ccccc2)cc1
O=C1CCC(C(=O)N(CCO)Cc2ccccc2)CN1CC1CCCCC1 (centres undefined)
Cc1cc(Cl)c2oc(C(=O)N3CCOCC3)c(C)c2c1

activation, inconclusive:
C=CCOc1cccc(C(=O)/C=C2/C(=O)Nc3ccccc32)c1 -69% [activator]
